For test [1], the target named is ATG2A with MBP inserted after residue 1224 (in ATG2_CAD) (human) (UniProt Q2TAZ0). In words: negative-stain EM.
Test [2] deals with ATG2A with MBP inserted after residue 1344 (human) (UniProt Q2TAZ0). In words: negative-stain EM.
Test [3] has as its target ATG2A with MBP inserted after residue 1373 (human) (UniProt Q2TAZ0). In words: negative-stain EM.
The target of test [4] is ATG2A with MBP inserted after residue 1503 (human) (UniProt Q2TAZ0). Kind of test: negative-stain EM.
For test [5], the target named is ATG2A with MBP inserted after residue 1829 (between the CLR and ATG_C) (human) (UniProt Q2TAZ0). In words: negative-stain EM.
Test [6] addresses S. cerevisiae ATG2 (S. cerevisiae, UniProt P53855 1-1592). Kind of test: pull-down.

Protein sequences, listed by entry. Tags and fused reporters are not part of them.
UniProt Q2TAZ0: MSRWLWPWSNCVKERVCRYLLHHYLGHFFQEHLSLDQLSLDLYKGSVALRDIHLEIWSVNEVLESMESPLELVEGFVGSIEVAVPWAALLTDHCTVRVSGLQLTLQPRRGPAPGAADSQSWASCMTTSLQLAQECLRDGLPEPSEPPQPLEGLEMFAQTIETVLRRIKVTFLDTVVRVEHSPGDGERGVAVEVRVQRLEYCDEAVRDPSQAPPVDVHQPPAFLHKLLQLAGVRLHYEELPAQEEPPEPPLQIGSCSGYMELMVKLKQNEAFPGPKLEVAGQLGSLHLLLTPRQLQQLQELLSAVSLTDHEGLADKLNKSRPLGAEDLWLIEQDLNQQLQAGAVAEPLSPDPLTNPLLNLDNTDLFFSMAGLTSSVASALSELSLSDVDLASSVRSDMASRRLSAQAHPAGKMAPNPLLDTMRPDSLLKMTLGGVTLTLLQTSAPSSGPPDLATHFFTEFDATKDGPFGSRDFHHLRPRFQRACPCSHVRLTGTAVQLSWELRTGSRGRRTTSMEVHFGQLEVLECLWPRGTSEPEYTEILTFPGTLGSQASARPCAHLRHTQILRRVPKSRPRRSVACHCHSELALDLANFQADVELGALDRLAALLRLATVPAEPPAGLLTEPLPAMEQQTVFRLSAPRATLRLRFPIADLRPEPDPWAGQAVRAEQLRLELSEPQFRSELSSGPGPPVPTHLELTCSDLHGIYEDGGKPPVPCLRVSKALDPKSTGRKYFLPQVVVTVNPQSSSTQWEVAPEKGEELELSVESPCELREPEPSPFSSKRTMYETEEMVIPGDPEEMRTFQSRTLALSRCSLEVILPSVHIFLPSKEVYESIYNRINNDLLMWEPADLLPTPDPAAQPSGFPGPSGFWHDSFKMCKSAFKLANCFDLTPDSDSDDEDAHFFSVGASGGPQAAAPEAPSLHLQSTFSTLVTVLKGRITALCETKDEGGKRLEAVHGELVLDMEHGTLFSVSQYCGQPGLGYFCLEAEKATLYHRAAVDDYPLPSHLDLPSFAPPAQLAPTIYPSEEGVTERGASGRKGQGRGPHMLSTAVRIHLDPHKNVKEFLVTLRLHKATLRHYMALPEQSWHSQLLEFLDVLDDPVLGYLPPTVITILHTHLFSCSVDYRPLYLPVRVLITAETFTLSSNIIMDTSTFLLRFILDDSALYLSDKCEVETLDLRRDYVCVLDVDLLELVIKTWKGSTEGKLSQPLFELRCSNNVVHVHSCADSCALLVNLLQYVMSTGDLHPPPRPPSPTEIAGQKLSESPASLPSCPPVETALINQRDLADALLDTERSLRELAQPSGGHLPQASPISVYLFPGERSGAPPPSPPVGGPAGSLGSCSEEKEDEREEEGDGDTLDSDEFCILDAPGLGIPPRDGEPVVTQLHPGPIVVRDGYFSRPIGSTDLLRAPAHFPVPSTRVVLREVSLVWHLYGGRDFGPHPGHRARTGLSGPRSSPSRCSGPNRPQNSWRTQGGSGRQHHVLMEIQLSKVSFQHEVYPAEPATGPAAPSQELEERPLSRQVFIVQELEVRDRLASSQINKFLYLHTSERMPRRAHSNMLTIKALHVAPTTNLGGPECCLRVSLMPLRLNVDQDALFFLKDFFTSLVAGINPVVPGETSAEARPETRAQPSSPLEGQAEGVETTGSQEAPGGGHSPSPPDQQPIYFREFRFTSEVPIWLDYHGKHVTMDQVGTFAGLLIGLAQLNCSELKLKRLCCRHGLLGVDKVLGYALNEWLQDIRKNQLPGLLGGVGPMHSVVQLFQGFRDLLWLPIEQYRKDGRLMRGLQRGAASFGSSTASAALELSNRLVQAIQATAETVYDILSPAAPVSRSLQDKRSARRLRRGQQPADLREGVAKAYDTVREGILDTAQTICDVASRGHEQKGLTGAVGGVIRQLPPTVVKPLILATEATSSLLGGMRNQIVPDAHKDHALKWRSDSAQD
UniProt P53855: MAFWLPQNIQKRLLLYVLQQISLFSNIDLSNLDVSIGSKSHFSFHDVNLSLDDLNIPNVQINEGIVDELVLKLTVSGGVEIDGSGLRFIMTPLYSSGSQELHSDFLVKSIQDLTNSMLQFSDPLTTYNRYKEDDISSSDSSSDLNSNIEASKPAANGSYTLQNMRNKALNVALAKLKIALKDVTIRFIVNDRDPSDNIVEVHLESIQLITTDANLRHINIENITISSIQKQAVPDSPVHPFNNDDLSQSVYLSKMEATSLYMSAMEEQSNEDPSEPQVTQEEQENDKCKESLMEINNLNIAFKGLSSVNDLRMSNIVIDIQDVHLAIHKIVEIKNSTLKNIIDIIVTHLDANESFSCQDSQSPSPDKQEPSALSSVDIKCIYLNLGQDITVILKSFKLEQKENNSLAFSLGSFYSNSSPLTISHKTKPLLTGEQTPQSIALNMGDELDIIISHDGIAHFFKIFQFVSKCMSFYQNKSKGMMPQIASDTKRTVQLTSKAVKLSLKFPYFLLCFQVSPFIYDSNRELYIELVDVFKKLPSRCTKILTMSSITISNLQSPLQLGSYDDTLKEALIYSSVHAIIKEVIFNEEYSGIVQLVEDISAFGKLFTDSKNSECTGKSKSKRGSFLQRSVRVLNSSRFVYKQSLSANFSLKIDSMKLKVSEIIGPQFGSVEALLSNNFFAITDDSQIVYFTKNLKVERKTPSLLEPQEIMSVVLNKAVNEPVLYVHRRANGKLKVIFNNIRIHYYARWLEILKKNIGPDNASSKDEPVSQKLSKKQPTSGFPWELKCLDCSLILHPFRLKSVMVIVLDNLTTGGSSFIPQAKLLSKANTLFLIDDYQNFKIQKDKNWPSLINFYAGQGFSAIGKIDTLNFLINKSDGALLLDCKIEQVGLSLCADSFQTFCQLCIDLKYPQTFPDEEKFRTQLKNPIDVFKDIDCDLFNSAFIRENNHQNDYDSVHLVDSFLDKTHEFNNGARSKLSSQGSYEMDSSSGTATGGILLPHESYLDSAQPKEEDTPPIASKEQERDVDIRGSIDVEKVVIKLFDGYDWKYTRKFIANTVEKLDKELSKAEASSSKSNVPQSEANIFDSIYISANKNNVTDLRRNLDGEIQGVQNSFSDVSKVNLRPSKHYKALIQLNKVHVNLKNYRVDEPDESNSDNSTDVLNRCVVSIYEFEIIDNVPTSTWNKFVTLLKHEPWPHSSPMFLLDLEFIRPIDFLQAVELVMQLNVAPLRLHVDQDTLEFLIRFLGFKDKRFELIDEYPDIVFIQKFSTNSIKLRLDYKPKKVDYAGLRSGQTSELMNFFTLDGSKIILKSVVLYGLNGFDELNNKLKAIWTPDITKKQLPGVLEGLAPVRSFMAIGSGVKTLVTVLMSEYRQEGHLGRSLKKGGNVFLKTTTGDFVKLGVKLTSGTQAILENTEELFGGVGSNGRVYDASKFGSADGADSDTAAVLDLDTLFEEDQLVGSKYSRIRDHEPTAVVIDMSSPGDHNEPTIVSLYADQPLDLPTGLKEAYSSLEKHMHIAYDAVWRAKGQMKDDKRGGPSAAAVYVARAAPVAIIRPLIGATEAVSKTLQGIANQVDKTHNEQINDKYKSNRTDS

No constants are given. Whether binding was seen depends on the method and setting. Some entries that bind do so weakly or less than the wild type.

B1: human WIPI4 (natural protein, UniProt Q9Y484 1-360, looked up)
chain: MTQQPLRGVTSLRFNQDQSCFCCAMETGVRIYNVEPLMEKGHLDHEQVGSMGLVEMLHRSNLLALVGGGSSPKFSEISVLIWDDAREGKDSKEKLVLEFTFTKPVLSVRMRHDKIVIVLKNRIYVYSFPDNPRKLFEFDTRDNPKGLCDLCPSLEKQLLVFPGHKCGSLQLVDLASTKPGTSSAPFTINAHQSDIACVSLNQPGTVVASASQKGTLIRLFDTQSKEKLVELRRGTDPATLYCINFSHDSSFLCASSDKGTVHIFALKDTRLNRRSALARVGKVGPMIGQYVDSQWSLASFTVPAESACICAFGRNTSKNVNSVIAICVDGTFHKYVFTPDGNCNREAFDVYLDICDDDDF
For B1, the binding entry in test [1], in test [2], in test [3], in test [4] and in test [5] was “binds” throughout.

B2: ATG18 (natural protein, S. cerevisiae, UniProt P43601 1-500, looked up)
chain: MSDSSPTINFINFNQTGTCISLGTSKGFKIFNCEPFGKFYSEDSGGYAIVEMLFSTSLLALVGIGDQPALSPRRLRIINTKKHSIICEVTFPTSILSVKMNKSRLVVLLQEQIYIYDINTMRLLHTIETNPNPRGLMAMSPSVANSYLVYPSPPKVINSEIKAHATTNNITLSVGGNTETSFKRDQQDAGHSDISDLDQYSSFTKRDDADPTSSNGGNSSIIKNGDVIVFNLETLQPTMVIEAHKGEIAAMAISFDGTLMATASDKGTIIRVFDIETGDKIYQFRRGTYATRIYSISFSEDSQYLAVTGSSKTVHIFKLGHSMSNNKLDSDDSNMEEAAADDSSLDTTSIDALSDEENPTRLAREPYVDASRKTMGRMIRYSSQKLSRRAARTLGQIFPIKVTSLLESSRHFASLKLPVETNSHVMTISSIGSPIDIDTSEYPELFETGNSASTESYHEPVMKMVPIRVVSSDGYLYNFVMDPERGGDCLILSQYSILMD
Consider B2, for which the binding result in test [6] is reported as “binds weakly”.

The record behind these values is paper doi:10.1101/180315 (bioRxiv, 2018).
